Source: patent publication US20150119372A1, “APPLICATION OF 18-METHYL-15SS,16SS-METHYLENE-19-NOR-20-SPIROX-4-EN-3-ONE SYSTEMS IN THE TREATMENT OF MENORRHAGIA, AS WELL AS INTRAUTERINE SYSTEMS CONTAINING 18-METHYL-15SS,16SS-METHYLENE-19-NOR-20-SPIROX-4-EN-3-ONE FOR TREATING UTERINE BLEEDING DISORDERS” (BAYER PHARMA AKTIENGESELLSCHAFT, priority 2012, published 2015)
Some results were stated once for a whole list of compounds, not compound by compound.

Assay: Calculated systemic exposition (Css = IUS release rate divided by clearance) in women
Set-up: species or system human
Conditions: dose of 20 μg per day and woman via IUS

Row | SMILES | calculated systemic exposition (load) lower in comparison with Mirena
1 | CC[C@]12CCC3C4CCC(=O)C=C4CCC3C1[C@@H]1C[C@@H]1[C@@]21CCCO1 (stereo partly drawn) [compound A, 18-methyl-15β,16β-methylene-19-nor-20-spirox-4-en-3-one] | over 30 times
2 | CC[C@]12CCC3C4CCC(=O)C=C4C4CC4C3C1[C@@H]1C[C@@H]1[C@@]21CCCO1 (stereo partly drawn) [compound B, 18-methyl-6α,7α,15β,16β-dimethylene-19-nor-20-spirox-4-en-3-one] | over 30 times
